# Test results: the supplement of paper PMC5949888
# ± gives the standard deviation of the averaged measurements. Most values lie at the floor of the assay. Slopes are relative: functional sequences can read slightly below zero.
# Test system: Saccharomyces cerevisiae PS128 hsf1 delta, HSF1(1-493) fusion
# Test: growth estimate (transactivation domain function in HSF1 fusion, heat-shock survival) (a.u. (slope of normalised read count over time)); higher = stronger growth at 37°C, i.e. more transactivation activity
# Details: library: random library
# Procedure: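 Random 60-nt DNA library encoding peptides of up to 20 aa, fused to the C-terminus of yeast HSF1 residues 1-493 (C-terminal TAD deleted) and expressed from the native HSF1 promoter on a CEN plasmid in hsf1-deleted S. cerevisiae PS128. Cells were selected at 37°C on -trp 5-FOA plates for 0, 2, 4, 6 and 8 days and amplicons were sequenced. Growth estimate is the slope of a robust linear fit of total-sum-normalised read counts (normalised to the first time point) over time, using at least 2 replicates. Sequences are classed functional (TAD activity) above a threshold of -0.13, set from stop-codon control sequences.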
row,Substance,growth estimate
1,GKVTWQLSGEVAPHAGQASS,< -0.25
2,SEGFLVPDMRVQEGGSIQGN,< -0.25
3,TSNNSRLTDPVMLLRTDRAP,< -0.25
4,FCQICEFVRHASFR,< -0.25
5,PWALPD,< -0.25
6,PFTLWRRNVLRAEPKRISRS,< -0.25
7,VQRPYPLGGMGDVLVLCICK,< -0.25
8,CYTYFSVPALMSRPLTEQLS,< -0.25
9,STSRKKCNKGLGPPGR,< -0.25
10,GDHRLPTRLIADSLTDGGM,< -0.25
11,CSGGVIQIAPH,< -0.25
12,GTRVVAQPCGAIGMHVERGP,< -0.25
13,AGISRHGITYTRAPIRHCKD,< -0.25
14,PYMSFSAVHRASLMRTCRVN,-0.103
15,ISITLA,< -0.25
16,ANRLCSIGKRVYTPRTR,< -0.25
17,PWRTISCLLNIRLALQFQ,-0.145
18,RLLKGSVITPSAQECH,< -0.25
19,TVVDR,-0.245
20,MVVYKASVCDFCQIHTRSGP,< -0.25
21,VWAICYANRAQFRV,< -0.25
22,VELEAFG,< -0.25
23,DPDGGQSVW,< -0.25
24,FVILLVLYLGLRLSVKGRSF,< -0.25

# Already shown: an excerpt of the list.
row,Substance,growth estimate
14,PYMSFSAVHRASLMRTCRVN,-0.103
15,ISITLA,< -0.25
16,ANRLCSIGKRVYTPRTR,< -0.25
17,PWRTISCLLNIRLALQFQ,-0.145

# More entries.

row,Substance,growth estimate
1,SPAG,< -0.25
2,GDYVPESKAT,-0.223
3,GSRRTVVVSCS,< -0.25
4,TGKCGASRSRWSGGAYSFSN,< -0.25
5,PPPMGQDRQEFGIPVSVPGI,< -0.25
6,MTAMSNPN,< -0.25
7,KVQRFLSLIGGTG,< -0.25
8,KLGRRAARLRA,-0.194
9,LYGRNCCAAWLLTKRGTPGR,< -0.25
10,GSWPL,< -0.25
11,LRQKVGLL,< -0.25
12,WGKVALGSYKQSPAFMLGGN,< -0.25
13,EVEQVINGSGPQHVDGRSRT,< -0.25
14,KLHVCNYV,< -0.25
15,SPTVSAEVSVARVDTWVSKG,< -0.25
16,VGYTSIEDSRILMPNDQ,< -0.25
17,YDM,< -0.25
18,RSATTRRLPRRPGLVRAIVG,< -0.25
19,QSSRRESLT,< -0.25
20,ASTALLGTWSSESRR,< -0.25
21,LHSNVSNQIRDIVIGRTPRR,< -0.25
22,VPHLGVSKTTSRRILCPAAT,< -0.25
23,SQSPLFDKYVGTV,< -0.25
24,LPVIKTVSIVRARGVWISTQ,< -0.25

row,Substance,growth estimate
1,LHLSMIAIDAAVFSLERLQD,< -0.25
2,RIMEDEYRE,< -0.25
3,GILYVLG,< -0.25
4,PEVSYRRVLLP,< -0.25
5,DWFIDYYRE,0.0722
6,SADNRACSAFFGMGN,< -0.25
7,ESCPCG,< -0.25
8,VNNRTSGKIRAPLNL,< -0.25
9,TVSFYRSNP,-0.0063
10,SGKG,< -0.25
11,LTSS,< -0.25
12,GVSRRLLIVIDTAVRVRGGA,< -0.25
13,PQSGNRTC,< -0.25
14,QHDGSNRTGNDGITSARL,< -0.25
15,IQAYTSGHRSGRDCWRSDAV,< -0.25
16,FREYPYELMVRNTGEDLEET,< -0.25
17,GDRTDRSSRLSASFNPA,< -0.25
18,KGRGSLSPSAQLRLLLLATR,< -0.25
19,FNVKLAENFRR,< -0.25
20,APSAGELGNYLTLRSLS,< -0.25
21,VYKAGGGTDRKRVRCSNSYR,< -0.25
22,MGHGWPGELRLGGLTSAI,< -0.25
23,IKLKLNKHQGHIC,< -0.25
24,RSVYMEADHDHHSRRA,< -0.25

# Single values from the list:
# growth estimate, PEVSYRRVLLP reads < -0.25
# growth estimate, LTSS reads < -0.25
# growth estimate, PQSGNRTC reads < -0.25
# growth estimate, GVSRRLLIVIDTAVRVRGGA reads < -0.25

# Additional records

row,Substance,growth estimate
1,KILANV,-0.245
2,KTEAVS,< -0.25
3,DEVSYNHRQFKVRMLAQGRR,< -0.25
4,AHYDGSFFTACVTSAKS,< -0.25
5,QGPKLRTGSRANALSGWCNT,< -0.25
6,TVRWSGLHILTALLVSCHFT,< -0.25
7,ASDSIR,< -0.25
8,TRCT,< -0.25
9,RPLNPGK,-0.245
10,LSRGCWSSGARGWSTSSGEW,< -0.25
11,HSIISVNK,< -0.25
12,ILQKPRGLSMAKEGVQAYSS,< -0.25
13,HRGVRTPGGVPGLRLDATLS,< -0.25
14,SAHLVFTV,< -0.25
15,TSLSSQMK,< -0.25
16,FLVFSTRLGHQYNYH,< -0.25
17,RIHAAF,< -0.25
18,ISTVIRLRKAVSRSPSPRGL,< -0.25
19,TRRAWAYQQ,< -0.25
20,REVPDRRRG,< -0.25
21,RHYPGSFQ,< -0.25
22,IAAHDNFSPFLVGWDIRP,-0.08
23,LSARKSGSPFGGSFAPLCVS,< -0.25
24,ERHRSASEYRCIIDIYQPAR,< -0.25

row,Substance,growth estimate
1,GLVRWHQLQDKGPNPNS,< -0.25
2,NQAPS,< -0.25
3,SSFGPWS,< -0.25
4,RSMVRWRIGLRG,< -0.25
5,YCPGQSSYYLITWEPLIKRC,< -0.25
6,NTSRDLGRTASSLVSSHRFV,< -0.25
7,LTPPKTV,< -0.25
8,LFRYLTFGYCLIHNVGRQTR,< -0.25
9,FDRASCLGLKRKHLVRLTVC,< -0.25
10,QPSQPLRDRRRLLNEYRDPP,< -0.25
11,SLSGVTQMERLSLSGFFATA,< -0.25
12,RDPADLTDPLPPAPIVGRNF,< -0.25
13,FGPIR,< -0.25
14,EIVKVIRMSRAA,< -0.25
15,AVVY,< -0.25
16,GFLCGEILNRMELG,< -0.25
17,LMGCWRRGQRGLPLITRWAF,< -0.25
18,TINTVHGLYGFAPR,< -0.25
19,CKIG,< -0.25
20,PAT,< -0.25
21,ETKR,< -0.25
22,QMKCYRP,< -0.25
23,CKQPQRACPTWKSAEAV,< -0.25
24,SGCSCLLAHPLFRA,< -0.25

row,Substance,growth estimate
1,TTMSREPVTSRRPYTGTQHP,< -0.25
2,DGSRRGPVKGSLNGH,< -0.25
3,KHRAYQSVGL,< -0.25
4,LRYPMAIGGYHGLPVL,-0.245
5,EDHSGDRTSGYELITHQQTY,< -0.25
6,IYACTEIYLRSPNGQFELPR,< -0.25
7,IESPPPAEEN,< -0.25
8,RGLDYGRVMYIMILSDLFYY,< -0.25
9,GVNGSTPHVRRRVVNA,< -0.25
10,NFTLGSSPSNSPYSWGNQ,< -0.25
11,VLLSACCCETSAYGLRKQQT,< -0.25
12,SLLSRPVDCAGWVRRVGKAI,< -0.25
13,STLN,< -0.25
14,HAPAQCLTQRKEDTHRRGRW,< -0.25
15,VDVCVESRPWWTE,< -0.25
16,VDAVLACP,< -0.25
17,ANKAIMSFPGFLSARWSI,< -0.25
18,FYDSAAPVRTFQLRLRVVRP,< -0.25
19,MDMYQEPRRLPWTARRRECA,< -0.25
20,GSG,-0.2493 ± 0.0017
21,LEGFSQCECRASSTFSA,< -0.25
22,VITTFLLCVNIVAC,< -0.25
23,FYHDSINFRVTEYWF,< -0.25
24,SVQFDSFPTQETLPARGSMG,< -0.25

row,Substance,growth estimate
1,GGISILFQRDKLGTRVQKWP,< -0.25
2,CWPSGRKNSNPQLGTSVLTG,< -0.25
3,ESN,< -0.25
4,SCFED,< -0.25
5,RPTEVW,< -0.25
6,REG,-0.2492 ± 0.0019
7,GRGDMTENLRYPAPGSP,< -0.25
8,HHKFLLNDGGQGFE,< -0.25
9,SAIDSTERPRFGVSLVGEGG,< -0.25
10,VIRNMFQSVVVRANVSQGSG,< -0.25
11,ISNEIPGLGNFLAIPAHVSG,-0.229
12,NLILVQPPRARAR,< -0.25
13,RQRGFHGIQTKLASGIAGDG,< -0.25
14,KGMRPPIFGMSYLHLAVSRV,< -0.25
15,CWVFIT,< -0.25
16,QPTGEQLVPFFAYTRKHTPR,< -0.25
17,GTTSDHTCCNIKAIH,< -0.25
18,HFPHVGKWSNASCKLGIGSD,< -0.25
19,QIKGAVFRVLYYKVREVQ,< -0.25
20,HAFYIGVDTESIKNLRPVVG,< -0.25
21,EWSESFARMELDLSLPGT,< -0.25
22,EEDYQRWTGTLRSR,< -0.25
23,GRKASLGGLPRSSSPYAVTD,< -0.25
24,AKQTTQIVFRERCRQAHNPR,< -0.25

row,Substance,growth estimate
1,QVYHPIPIKDSHLLGCTCPP,< -0.25
2,SCPGPKVCATEYRDRDPFCD,< -0.25
3,YHGVEGTTLLYYDFIIKHAG,< -0.25
4,SGTISSLRQLLVGRTTRGIR,< -0.25
5,GVQVLVAEYVNKQPWVSSRC,< -0.25
6,VSIQDVQRGVRL,< -0.25
7,SIHHHV,< -0.25
8,NVLAQEVLGTSIFGAHELTN,< -0.25
9,SDGIERGQALL,< -0.25
10,RRASRRFLFW,< -0.25
11,LHRS,-0.221
12,ADRFGFNLTQLKSVSPSRLS,< -0.25
13,EDEIIDGIPQPKQWDL,< -0.25
14,TTTGYIWA,< -0.25
15,GSCRPGLR,< -0.25
16,WSHQTQACDHGVPFSDCVDS,< -0.25
17,SCMRGTIEVLRK,< -0.25
18,LVADHGTRSSGRQQQPHVSP,< -0.25
19,EEDP,< -0.25
20,GTR,< -0.25
21,SKRLTLLDRHRALSR,< -0.25
22,FRRVRHQLDRYCALPHLEPL,< -0.25
23,ASPLRFARSSLLSRSPLVLQ,< -0.25
24,AAKGLGAESVIIWVSVRSTR,< -0.25
